Taken from: PubChem BioAssay AID652243 (Drosophila RNAi Screening Center, 2013)

- Screen: 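Fly regulators of androgen-dependent reporter output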 (primary screen)
- Cells: Drosophila S2R+ cells
- Reagents: long dsRNA against Drosophila genes
- Time to read-out: 72 h (48 h, then 24 h hormone)
- Treatment: synthetic androgen R1881 at 10 nM for 24 h
- Read-out: 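Firefly light from an androgen-responsive reporter and Renilla control light per well, raw and unnormalised, for each of two replicates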
- Scale: firefly reporter light: higher = more light from androgen-responsive reporter; Renilla control light: higher = more constitutive control signal (cell number, transfection)
- Hit rule: 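Hit when the log firefly-to-Renilla ratio dropped or increased by a fixed fold versus the mean of GFP or LacZ controls across duplicate plates; lowering cut given as 1.5 and as 3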
- Calls: active = hit: reporter lowered or raised; inactive = no hit
The screen tested about 24,000 reagents; shown is an unselected part of those with a known target gene and a result. Over the whole deposit, 246 (1%) are marked active. 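Plates not normalised; calls are printed but the firefly/Renilla ratio behind them is not deposited; fold cut for lowering reported inconsistently.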 The raw values are shown without normalisation. The record does not give: the amount of reagent.

The opening 2 records, to show the layout:
Mco4 (Multicopper oxidase 4) [DRSC20061] | firefly reporter light, replicate 1 = 3.83e5; firefly reporter light, replicate 2 = 3.50e5; Renilla control light, replicate 1 = 3.30e6; Renilla control light, replicate 2 = 3.10e6; call = inactive
Mco4 (Multicopper oxidase 4) [DRSC27932] | firefly reporter light, replicate 1 = 6.53e5; firefly reporter light, replicate 2 = 4.75e5; Renilla control light, replicate 1 = 2.41e6; Renilla control light, replicate 2 = 2.02e6; call = inactive

The listing, from the first entry:
Mco4 (Multicopper oxidase 4) [DRSC20061] | firefly reporter light, replicate 1 = 3.83e5; firefly reporter light, replicate 2 = 3.50e5; Renilla control light, replicate 1 = 3.30e6; Renilla control light, replicate 2 = 3.10e6; call = inactive
Mco4 (Multicopper oxidase 4) [DRSC27932] | firefly reporter light, replicate 1 = 6.53e5; firefly reporter light, replicate 2 = 4.75e5; Renilla control light, replicate 1 = 2.41e6; Renilla control light, replicate 2 = 2.02e6; call = inactive
CG14803 [DRSC18556] | firefly reporter light, replicate 1 = 3.10e5; firefly reporter light, replicate 2 = 3.36e5; Renilla control light, replicate 1 = 4.35e6; Renilla control light, replicate 2 = 3.46e6; call = inactive
CG12054 [DRSC23137] | firefly reporter light, replicate 1 = 3.88e5; firefly reporter light, replicate 2 = 4.85e5; Renilla control light, replicate 1 = 2.20e6; Renilla control light, replicate 2 = 2.72e6; call = active
ppk14 (pickpocket 14) [DRSC03238] | firefly reporter light, replicate 1 = 2.13e5; firefly reporter light, replicate 2 = 1.50e5; Renilla control light, replicate 1 = 1.85e6; Renilla control light, replicate 2 = 1.55e6; call = inactive
CG11380 [DRSC23223] | firefly reporter light, replicate 1 = 5.93e5; firefly reporter light, replicate 2 = 6.34e5; Renilla control light, replicate 1 = 1.50e6; Renilla control light, replicate 2 = 1.68e6; call = inactive
CG11380 [DRSC29190] | firefly reporter light, replicate 1 = 1.05e6; firefly reporter light, replicate 2 = 8.67e5; Renilla control light, replicate 1 = 1.47e6; Renilla control light, replicate 2 = 1.55e6; call = inactive
CG13708 [DRSC08317] | firefly reporter light, replicate 1 = 1.89e5; firefly reporter light, replicate 2 = 2.77e5; Renilla control light, replicate 1 = 2.31e6; Renilla control light, replicate 2 = 2.59e6; call = inactive
Tace [DRSC16340] | firefly reporter light, replicate 1 = 99925; firefly reporter light, replicate 2 = 95104; Renilla control light, replicate 1 = 7.37e5; Renilla control light, replicate 2 = 4.52e5; call = inactive
flw (flapwing) [DRSC17992] | firefly reporter light, replicate 1 = 4.19e5; firefly reporter light, replicate 2 = 3.81e5; Renilla control light, replicate 1 = 2.92e6; Renilla control light, replicate 2 = 2.73e6; call = inactive
flw (flapwing) [DRSC18774] | firefly reporter light, replicate 1 = 8.57e5; firefly reporter light, replicate 2 = 6.92e5; Renilla control light, replicate 1 = 4.90e6; Renilla control light, replicate 2 = 4.39e6; call = inactive
flw (flapwing) [DRSC25161] | firefly reporter light, replicate 1 = 9.00e5; firefly reporter light, replicate 2 = 4.45e5; Renilla control light, replicate 1 = 8.11e5; Renilla control light, replicate 2 = 6.15e5; call = active
